Data: the supplement of paper PMC9135407
Values joined by “and” are separate entries in the source; they are usually repeats but may differ in a detail not shown here. Equal values may be shown once. Where a name gives a salt, the structure may show the parent alone. ± gives the standard deviation of the averaged measurements. This is one part of the list. Plates or batches differ in their baseline, so values are only roughly comparable.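 Assay uses culture-activated primary human stellate myofibroblasts; lipid droplet recovery indicates inactivation. Measured: proportion of Hoechst-counted cells over a plate-specific Bodipy cutoff, duplicate wells, DMSO and nortriptyline as per-plate negative and positive controls. A hit scores, control-normalized, above the plate's top-tenth-percentile nortriptyline wells or ranks among its three best wells. Final well concentrations not reported.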

Tested on: primary human hepatic stellate cells (donor 1)
Test: percent Bodipy-positive cells; higher = more lipid droplet accumulation
Conditions: 48 h
Protocol: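 Primary lipid accumulation screen in primary human hepatic stellate cell myofibroblasts (donor 1, passage 8) in 384-well plates. 100 nL of library compound was pin-transferred into 30 µL medium in duplicate, and cells were treated for 48 h. The 'Scaled' score combines distance from plate baseline, toxicity and reproducibility penalties, and is normalised to nortriptyline (positive) and DMSO (negative) controls on each plate. A hit is defined as scaled >0.85 or among the top 3 wells per plate.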

[1] = library stock concentration: 3.33 mM
[2] = library stock concentration: 10 mM
[3] = library stock concentration: 1 mM

## COC(=O)C1=C(C#N)NC(C)=C(C(=O)OC(C)C)C1c1cccc([N+](=O)[O-])c1 (stereo not given) [Nilvadipine]
[1]
  percent Bodipy-positive cells: 23.8 ± 16%
[2]
  percent Bodipy-positive cells: 22.1 ± 11%

## N#Cc1cc2nc(O)c(O)nc2cc1[N+](=O)[O-] [CNQX disodium salt]
[2]
  percent Bodipy-positive cells: 5.65 ± 0.76%

## N#Cc1cc2nc(O)c(O)nc2cc1[N+](=O)[O-] [CNQX disodium]
[2]
  percent Bodipy-positive cells: 43 ± 3.6%

## CCCCCCCCCCCCCCCCCCOCC(O)COP(=O)([O-])OCC[N+](C)(C)C (stereo not given)
[3]
  percent Bodipy-positive cells: 14.7 ± 0.83%

## C[C@@H](CN1CCC(Cc2ccccc2)CC1)[C@@H](O)c1ccc(O)cc1 [Ro 25-6981 maleate]
[2]
  percent Bodipy-positive cells: 28.7 ± 8.7%

## C[C@@H](CN1CCC(Cc2ccccc2)CC1)[C@@H](O)c1ccc(O)cc1 [Ro 25-6981 hydrochloride]
[2]
  percent Bodipy-positive cells: 36.8 ± 1.6%

## CCCCC[C@H](O)CC[C@H]1[C@H](O)CC(=O)[C@@H]1CCCCCCC(=O)O [13,14-Dihydro-PGE1]
[3]
  percent Bodipy-positive cells: 6.08 ± 4.5%

## CNc1nc(Nc2cn(C(C)(C)C#N)nc2C)ncc1C(F)(F)F
[1]
  percent Bodipy-positive cells: 23.4 ± 11%
[2]
  percent Bodipy-positive cells: 47.8 ± 5.9%

## CC1CC(OC(=O)c2ccccc2O)CC(C)(C)C1 (stereo not given) [Homosalate]
  percent Bodipy-positive cells: 7.61 ± 0.2%
Library stock concentration: 7.6 mM
  percent Bodipy-positive cells: 34.8 ± 27%

## N[C@@H](CS(=O)O)C(=O)O [L-Cysteinesulfinic Acid]
[2]
  percent Bodipy-positive cells: 50.9 ± 20%

## N[C@@H](CS(=O)O)C(=O)O [L-Cysteinesulfinic acid]
[2]
  percent Bodipy-positive cells: 4.6 ± 1.7%

## O=C1Nc2ccccc2/C1=C\c1c(Cl)[nH]c2ccccc12
Library stock concentration: 80 uM
  percent Bodipy-positive cells: 13.2 ± 6.2%
Library stock concentration: 400 uM
  percent Bodipy-positive cells: 7.26 ± 1.4%
Library stock concentration: 2 mM
  percent Bodipy-positive cells: 9.51 ± 0.98%
[2]
  percent Bodipy-positive cells: 37.8 ± 9.6%

## CCCCC/C=C/C=C1/C(=O)C=C[C@@H]1C/C=C\CCCC(=O)O [15-deoxy-.DELTA.12,14-Prostaglandin J2]
[3]
  percent Bodipy-positive cells: 20.9% and 12.9%

## NC[C@@H]1O[C@@H](O[C@H]2[C@H](O)[C@@H](O[C@H]3O[C@H](CO)[C@@H](O)[C@H](N)[C@H]3O)[C@H](N)C[C@@H]2N)[C@@H](O)[C@H](O)[C@H]1O [Kanamycin a sulfate]
[2]
  percent Bodipy-positive cells: 17 ± 3.8%

## NC[C@@H]1O[C@@H](O[C@H]2[C@H](O)[C@@H](O[C@H]3O[C@H](CO)[C@@H](O)[C@H](N)[C@H]3O)[C@H](N)C[C@@H]2N)[C@@H](O)[C@H](O)[C@H]1O [Kanamycin A sulfate]
  percent Bodipy-positive cells: 49.8 ± 20%

## Nc1nc(-c2ccc(Cl)c(Cl)c2)c(-c2ccncc2)s1 [CGH 2466 dihydrochloride]
[2]
  percent Bodipy-positive cells: 8.21 ± 0.3%

## COCCCN1CCC(NC(=O)c2cc(Cl)c(N)c3c2OCC3)CC1 [Prucalopride Succinat]
[1]
  percent Bodipy-positive cells: 13.6 ± 1.4%
[2]
  percent Bodipy-positive cells: 33.89 ± 0.11%

## COCCCN1CCC(NC(=O)c2cc(Cl)c(N)c3c2OCC3)CC1 [Prucalopride]
[1]
  percent Bodipy-positive cells: 17 ± 13%
[2]
  percent Bodipy-positive cells: 31.8 ± 20%

## N[C@@H](Cc1cc(I)c(Oc2ccc(O)c(I)c2)c(I)c1)C(=O)O [Liothyronine (l- isomer) sodium]
Library stock concentration: 3 mM
  percent Bodipy-positive cells: 16.3 ± 7.4%

## N[C@@H](Cc1cc(I)c(Oc2ccc(O)c(I)c2)c(I)c1)C(=O)O [Liothyronine Sodium]
[1]
  percent Bodipy-positive cells: 7.11 ± 3.4%
[2]
  percent Bodipy-positive cells: 29.9 ± 11%

## N[C@@H](Cc1cc(I)c(Oc2ccc(O)c(I)c2)c(I)c1)C(=O)O [Liothyronine sodium]
[2]
  percent Bodipy-positive cells: 39.2 ± 5.7%

## N[C@@H](Cc1cc(I)c(Oc2ccc(O)c(I)c2)c(I)c1)C(=O)O [Liothyronine]
  percent Bodipy-positive cells: 10.6 ± 2.6%
Library stock concentration: 3.1 mM
  percent Bodipy-positive cells: 25.1 ± 19%

## N[C@@H](Cc1cc(I)c(Oc2ccc(O)c(I)c2)c(I)c1)C(=O)O
[2]
  percent Bodipy-positive cells: 20.7 ± 4.9%

## Cc1cc(CN2CCN(c3c(Br)cnc4nc(-c5ccc(N6CCN(C)CC6)cc5)[nH]c34)CC2)no1
[2]
  percent Bodipy-positive cells: 89.81 ± 0.55%

## CN(C)C(=O)[C@H](O)[C@H](Cc1ccccc1)NC(=O)c1cc2cc(Cl)ccc2[nH]1
[1]
  percent Bodipy-positive cells: 9.77 ± 1.2%

## CC1(C(=O)O)NCCc2cc(O)c(O)cc21 (stereo not given) [Salsolinol-1-carboxylic acid]
[2]
  percent Bodipy-positive cells: 4.71 ± 0.48%

## Cl/C(=C\n1cncn1)c1ccc(Cl)cc1Cl [Loreclezole hydrochloride]
[2]
  percent Bodipy-positive cells: 6.03 ± 1.1%

## CCC(=O)NC1Cc2ccccc2C(c2ccccc2)C1 (stereo not given)
[2]
  percent Bodipy-positive cells: 8.99 ± 4.2%

## O=C(Oc1cc(S(=O)(=O)c2ccccc2)ccc1[N+](=O)[O-])c1ccc(Cl)cc1
[1]
  percent Bodipy-positive cells: 32 ± 4.9%
[2]
  percent Bodipy-positive cells: 26.2 ± 4%

## O=C(O)/C=C\C(=O)O.O=C(O)/C=C\C(=O)O.c1cc(CN2CCCCC2)cc(OCCCNc2nc3ccccc3s2)c1 [Zolantidine dimaleate]
[2]
  percent Bodipy-positive cells: 79.1 ± 3.5%

## COc1ccc(C2CC(=O)c3c(O)cc(OC4OC(COC5OC(C)C(O)C(O)C5O)C(O)C(O)C4O)cc3O2)cc1OC (stereo not given) [Methyl-Hesperidin]
[1]
  percent Bodipy-positive cells: 7.35 ± 3.5%
[2]
  percent Bodipy-positive cells: 16 ± 1%

## OCC(O)CCO/N=C1\C(c2c(O)[nH]c3ccccc23)=Nc2ccccc21 (stereo not given) [Indirubin Derivative E804]
[1]
  percent Bodipy-positive cells: 14.8 ± 6.1%

## Cc1ccc(=O)n(-c2ccccc2)c1 [Pirfenidone]
[1]
  percent Bodipy-positive cells: 12.5 ± 7.2%

## CS(=O)(=O)c1ccc(-n2nc(C(F)(F)F)cc2-c2ccc(F)cc2)cc1
[2]
  percent Bodipy-positive cells: 32.7 ± 12%

## OCCCNc1cc(-c2ccnc(Nc3cccc(Cl)c3)n2)ccn1
[2]
  percent Bodipy-positive cells: 83.7 ± 1.6%

## O=C1C=CC(=O)C2=C1C1c3ccccc3C2c2ccccc21
[2]
  percent Bodipy-positive cells: 89.2 ± 4.3%

## CN1CCC(=C2c3ccccc3Sc3ccccc32)CC1 [Pimethixene maleate]
  percent Bodipy-positive cells: 71.2 ± 0.76%
[2]
  percent Bodipy-positive cells: 74.6 ± 0.96%

## Nc1c2ccccc2nc2ccccc12 [Aminacrine]
[2]
  percent Bodipy-positive cells: 76.45 ± 0.53%

## CCCCCCCC/C=C\CCCCCCCC(N)=O [9,10-Octadecenoamide]
[3]
  percent Bodipy-positive cells: 9.56 ± 3.7%

## CCCCCCCC/C=C\CCCCCCCC(N)=O [Oleamide]
[3]
  percent Bodipy-positive cells: 11.7 ± 8.6%
[2]
  percent Bodipy-positive cells: 6.94 ± 0.35%

## Br.CN1CCC[C@@H]1Cc1c[nH]c2ccc(CCS(=O)(=O)c3ccccc3)cc12 [Eletriptan hydrobromide]
[2]
  percent Bodipy-positive cells: 89.2 ± 5.6%
